Experimental data as given in publication PMC8956953.
Results are given in words; binding and its absence hold for the method and conditions named. Some entries that bind do so weakly or less than the wild type.

Protein sequences, listed by entry. Tags and fused reporters are not part of them.
UniProt Q9HBH9: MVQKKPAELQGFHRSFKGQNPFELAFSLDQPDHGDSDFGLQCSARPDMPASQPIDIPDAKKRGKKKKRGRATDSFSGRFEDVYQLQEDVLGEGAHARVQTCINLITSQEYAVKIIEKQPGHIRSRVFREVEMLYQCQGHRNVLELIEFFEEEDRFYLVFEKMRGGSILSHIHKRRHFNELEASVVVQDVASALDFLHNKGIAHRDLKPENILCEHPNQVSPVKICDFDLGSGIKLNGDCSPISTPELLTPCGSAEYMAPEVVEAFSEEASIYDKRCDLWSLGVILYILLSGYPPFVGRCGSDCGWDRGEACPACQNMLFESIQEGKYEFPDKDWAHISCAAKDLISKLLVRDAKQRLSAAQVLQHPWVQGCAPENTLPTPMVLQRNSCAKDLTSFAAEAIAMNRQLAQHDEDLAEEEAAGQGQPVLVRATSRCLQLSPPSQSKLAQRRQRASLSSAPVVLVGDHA
UniProt P53667: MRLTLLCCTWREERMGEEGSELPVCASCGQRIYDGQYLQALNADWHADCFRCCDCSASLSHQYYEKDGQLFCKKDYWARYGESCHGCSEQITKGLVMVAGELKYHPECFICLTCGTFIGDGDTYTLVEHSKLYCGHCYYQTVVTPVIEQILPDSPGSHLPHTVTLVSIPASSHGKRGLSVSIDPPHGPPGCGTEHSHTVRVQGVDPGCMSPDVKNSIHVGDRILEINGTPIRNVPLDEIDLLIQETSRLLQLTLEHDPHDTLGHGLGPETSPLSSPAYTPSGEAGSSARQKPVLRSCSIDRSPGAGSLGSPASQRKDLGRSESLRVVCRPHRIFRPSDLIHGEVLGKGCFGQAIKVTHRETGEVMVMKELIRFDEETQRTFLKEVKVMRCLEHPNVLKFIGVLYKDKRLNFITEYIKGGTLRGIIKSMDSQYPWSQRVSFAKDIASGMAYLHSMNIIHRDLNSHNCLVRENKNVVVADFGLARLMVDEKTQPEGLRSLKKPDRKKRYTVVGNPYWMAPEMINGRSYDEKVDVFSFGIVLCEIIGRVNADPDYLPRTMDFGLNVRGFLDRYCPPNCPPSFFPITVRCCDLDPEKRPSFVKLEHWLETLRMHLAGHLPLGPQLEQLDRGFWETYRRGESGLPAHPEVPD
UniProt O43865: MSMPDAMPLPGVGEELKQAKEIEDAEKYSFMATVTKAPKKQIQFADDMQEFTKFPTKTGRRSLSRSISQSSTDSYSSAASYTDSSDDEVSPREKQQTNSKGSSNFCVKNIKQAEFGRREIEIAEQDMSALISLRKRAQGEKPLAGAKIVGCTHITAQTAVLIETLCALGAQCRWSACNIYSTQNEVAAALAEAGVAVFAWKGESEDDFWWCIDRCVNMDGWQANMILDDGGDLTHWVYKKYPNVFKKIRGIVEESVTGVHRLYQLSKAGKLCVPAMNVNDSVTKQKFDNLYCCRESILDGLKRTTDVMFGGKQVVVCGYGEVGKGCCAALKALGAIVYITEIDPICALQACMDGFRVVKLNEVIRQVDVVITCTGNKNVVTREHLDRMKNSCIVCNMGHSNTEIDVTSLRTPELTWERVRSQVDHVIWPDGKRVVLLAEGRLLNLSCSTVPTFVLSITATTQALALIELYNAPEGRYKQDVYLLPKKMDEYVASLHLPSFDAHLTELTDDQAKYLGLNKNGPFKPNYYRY
UniProt Q14247: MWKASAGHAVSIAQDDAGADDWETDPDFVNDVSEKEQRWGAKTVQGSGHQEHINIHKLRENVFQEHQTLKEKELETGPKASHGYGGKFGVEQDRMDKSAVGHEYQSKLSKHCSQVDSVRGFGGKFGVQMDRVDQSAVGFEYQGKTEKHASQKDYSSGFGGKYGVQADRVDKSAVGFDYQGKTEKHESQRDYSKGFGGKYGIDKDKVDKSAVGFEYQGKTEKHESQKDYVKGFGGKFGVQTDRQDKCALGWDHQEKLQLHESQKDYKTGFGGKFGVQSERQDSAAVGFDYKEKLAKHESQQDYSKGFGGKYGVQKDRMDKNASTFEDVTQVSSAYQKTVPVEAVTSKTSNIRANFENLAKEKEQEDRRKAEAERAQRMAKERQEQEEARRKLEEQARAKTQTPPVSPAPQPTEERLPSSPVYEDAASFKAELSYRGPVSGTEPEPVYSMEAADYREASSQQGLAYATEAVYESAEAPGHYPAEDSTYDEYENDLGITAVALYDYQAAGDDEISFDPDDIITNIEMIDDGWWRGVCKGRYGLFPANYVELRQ

Assays:
Assay in all cases: peptide or protein array; ProtoArray Human Protein Microarrays v5.1, ~9000 N-terminal GST-tagged human proteins spotted on nitrocellulose-coated slides; htau40 at 5 and 50 ng/μl in probe buffer (1x PBS, 0.1% Tween-20, 1x synthetic block), 90 min at 4 °C; detected with anti-tau K9JA and Alexa Fluor 647 secondary antibody; both purified
[1] = biological target: MKNK2, spotted on the ProtoArray (human) (UniProt Q9HBH9)
[2] = biological target: LIMK1, spotted on the ProtoArray (human) (UniProt P53667)
[3] = biological target: T1, MAPK8IP2, spotted on the ProtoArray (human) (UniProt Q13387)
T1 sequence: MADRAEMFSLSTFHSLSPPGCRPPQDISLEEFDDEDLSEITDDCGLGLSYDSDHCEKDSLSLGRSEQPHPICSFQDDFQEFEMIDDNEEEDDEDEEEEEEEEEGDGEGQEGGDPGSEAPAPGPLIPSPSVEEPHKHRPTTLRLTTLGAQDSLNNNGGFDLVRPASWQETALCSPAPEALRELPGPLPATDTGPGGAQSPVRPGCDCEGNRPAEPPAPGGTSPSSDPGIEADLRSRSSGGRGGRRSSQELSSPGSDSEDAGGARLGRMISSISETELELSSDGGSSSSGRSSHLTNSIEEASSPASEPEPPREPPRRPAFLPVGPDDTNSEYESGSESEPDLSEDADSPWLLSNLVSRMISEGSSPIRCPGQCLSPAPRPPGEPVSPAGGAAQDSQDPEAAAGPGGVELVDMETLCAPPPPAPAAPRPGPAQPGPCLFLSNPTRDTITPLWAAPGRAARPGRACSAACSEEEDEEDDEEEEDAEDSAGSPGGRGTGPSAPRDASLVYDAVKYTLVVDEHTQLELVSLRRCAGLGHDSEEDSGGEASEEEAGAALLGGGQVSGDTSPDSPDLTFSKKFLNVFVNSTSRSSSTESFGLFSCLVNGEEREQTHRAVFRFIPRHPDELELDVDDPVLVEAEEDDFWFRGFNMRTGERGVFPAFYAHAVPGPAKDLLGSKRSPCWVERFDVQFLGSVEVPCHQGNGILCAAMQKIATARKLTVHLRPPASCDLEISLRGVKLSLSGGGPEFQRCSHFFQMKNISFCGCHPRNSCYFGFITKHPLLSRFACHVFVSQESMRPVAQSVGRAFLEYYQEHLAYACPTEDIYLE

[4] = biological target: SAH hydrolase-like protein 1/IP3R-binding protein (AHCYL1/IRBIT), spotted on the ProtoArray (human) (UniProt O43865)
[5] = biological target: T2, SAMSN1, spotted on the ProtoArray (human) (UniProt Q9NSI8)
T2 sequence: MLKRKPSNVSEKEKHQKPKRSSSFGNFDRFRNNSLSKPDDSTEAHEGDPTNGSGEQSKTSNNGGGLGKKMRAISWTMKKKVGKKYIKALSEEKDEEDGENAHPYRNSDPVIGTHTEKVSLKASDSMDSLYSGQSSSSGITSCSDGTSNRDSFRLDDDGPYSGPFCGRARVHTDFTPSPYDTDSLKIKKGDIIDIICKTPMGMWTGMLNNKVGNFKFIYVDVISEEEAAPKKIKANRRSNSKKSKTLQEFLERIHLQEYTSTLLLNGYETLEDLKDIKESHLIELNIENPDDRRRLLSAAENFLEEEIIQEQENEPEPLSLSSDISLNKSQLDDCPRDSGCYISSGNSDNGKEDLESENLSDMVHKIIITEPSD

[6] = biological target: T3, SH3D19, spotted on the ProtoArray (human) (UniProt Q5HYK7)
T3 sequence: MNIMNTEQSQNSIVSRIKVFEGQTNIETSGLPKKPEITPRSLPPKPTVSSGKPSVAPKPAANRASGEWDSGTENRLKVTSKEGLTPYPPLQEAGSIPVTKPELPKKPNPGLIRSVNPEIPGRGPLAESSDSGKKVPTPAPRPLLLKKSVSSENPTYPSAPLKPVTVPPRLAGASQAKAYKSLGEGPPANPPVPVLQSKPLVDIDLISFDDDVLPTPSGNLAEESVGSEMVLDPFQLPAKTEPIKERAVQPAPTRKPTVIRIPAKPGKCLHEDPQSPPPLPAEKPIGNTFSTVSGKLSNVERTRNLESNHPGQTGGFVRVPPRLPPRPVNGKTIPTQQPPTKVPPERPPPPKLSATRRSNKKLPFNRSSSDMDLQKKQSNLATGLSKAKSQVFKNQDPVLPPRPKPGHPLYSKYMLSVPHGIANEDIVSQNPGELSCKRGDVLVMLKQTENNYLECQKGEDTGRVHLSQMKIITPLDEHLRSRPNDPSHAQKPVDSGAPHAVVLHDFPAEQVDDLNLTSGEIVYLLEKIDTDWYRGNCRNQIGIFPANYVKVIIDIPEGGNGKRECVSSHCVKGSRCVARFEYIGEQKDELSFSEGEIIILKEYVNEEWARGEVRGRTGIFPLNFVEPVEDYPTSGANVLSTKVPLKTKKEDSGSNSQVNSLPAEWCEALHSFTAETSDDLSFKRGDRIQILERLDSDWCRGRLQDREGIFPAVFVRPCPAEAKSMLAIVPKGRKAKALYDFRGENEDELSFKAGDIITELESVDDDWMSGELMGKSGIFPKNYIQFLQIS

[7] = biological target: Src substrate cortactin, spotted on the ProtoArray (human) (UniProt Q14247)

binding [1]: binds
binding [2]: binds
binding [3]: binds
binding [4]: binds
binding [5]: binds
binding [6]: binds
binding [7]: binds
Substance: recombinant human full-length tau protein (htau40) (from UniProt P10636-8 1-441)
